From patent publication US20260199350A1, “FLAVONES, QUINOLINONES, QUINAZOLINONES, AND AURONES, AND USES IN CK2-MEDIATED DISEASES” (Salk Institute for Biological Studies, priority 2022, published 2026)
Like-named read-outs stand apart in the source and are kept apart here. For at least one compound, name, drawing or mass did not settle the structure. Some results were stated once for a whole list of compounds, not compound by compound.

Assays:
CK2 = conditions: cited from earlier work
IL6 and IL8 expression = conditions: iPSC-derived microglia, Mishra et al.; cited from earlier work
NF-κB pS529 = test: Immunofluorescence of NF-κB pS529 in activated astrocytes; type: cell-based, human; conditions: after 5 hours
IL-6 and MCP1 = conditions: primary astrocytes; cited from earlier work
IL6 and IL8 mRNA = test: Activation assay and ddPCR in IL1-β-activated astrocytes; type: cell-based, human
Description: Activation assays and ddPCR. HCA or H1-derived astrocytes were treated with vehicle (DMSO) or 20 μM compound and stimulated with IL1B 10 ng/mL for 5 h. Cells were scraped into RNA-Bee and total RNA was purified using the Direct-zol RNA kit (Zymo Research). RNA concentration was measured using Nanodrop and RNA was reverse transcribed into cDNA using the High Capacity cDNA Reverse Transcriptase Kit (Applied Biosystems). Reaction mixes consisting of TaqMan FAM probe (IL6 probe Hs00174131_m1, IL8 probe Hs00174103_m1, CSNK2A1 probe Hs00751002_s1, CSNK2A2 probe Hs00176505_m1), control TaqMan ACTB-VIC probe (Thermo Fisher Scientific 4326315E), ddPCR Supermix for Probes (Bio-Rad 186-3024), and cDNA were formed into oil droplets using the QX200 Droplet Generator. After amplification (Bio-Rad C1000 Touch Thermal Cycler) according to manufacturer's instructions, the plate was read in the QX200 Droplet Reader.

CK2 pY255 = test: Immunofluorescence of CK2 pY255 in astrocytes; type: cell-based, human; conditions: 5 hours
IκBα = test: Immunoblot of IκBα and pIκB S32 in inflamed astrocytes; type: cell-based, human; conditions: 6 hours
Description: Western blotting. For drug treatment assays, cells were treated with vehicle (DMSO) or 20 μM compound and stimulated with IL1B 10 ng/mL for 1 h, 6 h, or 24 h. Cells were dissociated with 1:1 Accutase:papain for 3 min at rt, pelleted for 5 min at 800 g, and washed twice with cold DPBS. Pellets were lysed with RIPA buffer (Sigma R^0278) supplemented with Halt protease inhibitor cocktail (Thermo Fisher 78445) and clarified by centrifugation (16,000 g, 10 min, 4° C.). Protein concentration was determined by BCA assay (Thermo Fisher). Proteins were denatured in 1×LDS Buffer and 2.5% beta-mercaptoethanol (Sigma) for 10 min at 70° C., separated on Bolt 4-12% Bis-Tris Plus polyacrylamide gels (Thermo Fisher), transferred to PVDF membranes using the iBlot 2 Dry Blotting System, and blocked with 0.1% casein-PBS (Bio-Rad) for 1 h at room temperature. The blots were incubated with primary antibodies overnight at 4° C. in PBS containing 0.1% casein and 0.2% Tween-20. […] The blots were imaged using the Odyssey CLx imaging system and blots were analyzed on the ImageStudio software (LI-COR).

[1] = test system: IL-6, IL-8, TNF-α, and MCP-1; test: Flow cytometry assay of cytokine production in HCA; type: cell-based, human; conditions: 20 μM compound, 10 ng/mL IL1-β
Description: Flow cytometry. For each well of HCA in a 6-well plate, 2 mL of fresh media with GolgiPLUG (BD #555029, 1:1000) and GolgiSTOP (BD #554724, 1:1000) with 20 μM compound or vehicle (DMSO) and IL1b 10 ng/mL or DPBS was added. The cells were incubated for 5 h at 37° C. Cells were collected with TrypLE and plated into a 96-well V-bottom plate for staining. The plate was centrifuged for 5 min, 1300 rpm, 4° C. to pellet cells, which were subsequently resuspended in 100 μL DPBS with 1 μL Zombie Violet (Biolegend #4231 13) and 5 μL Human Trustain FC block (Biolegend #422302) per well for 15 min at room temperature in the dark. The plate was centrifuged, supernatant was aspirated, and the cells were washed with 100 μL/well DPBS. Cells were fixed with 100 μL/well of Cytofix/Cytoperm (BD) for 20 min at 4° C. The plate was centrifuged, supernatant was aspirated, and cells were resuspended in 100 μL Permwash (BD) and incubated for 15 min at 4° C. The plate was centrifuged, supernatant was aspirated, and cells were incubated with 100 μL/well of Ab mix or isotype mix in Permwash (see below) for 20 min at 4° C., followed by centrifugation and 2× PermWash washes. The cells were resuspended in 100 μL DPBS and transferred to FACS tubes containing 200 ul of PBS (total volume per tube 300 μL) for analysis on FACS Analyzers (LSRII or Fortessa). […]

NF-κB = test: NF-κB-Luciferase reporter assay in THP-1 NF-κB-Lucia cells; type: cell-based, human; conditions: at 20 μM; FIG. 5A; some values sourced from Baier et al. (2017) and Lolli et al. (2012)
Description: NF-κB-Luciferase reporter assay. THP-1 NF-κB-Lucia cells were plated at 10,000 cells per well with 10 ng/mL PMA. Three days later, media was removed and replaced with media containing LPS (1 μg/mL) and dilution series of compounds in flat bottom clear 96-well plates for 24 hours. A day later, 20 μL of media was transferred to a 96-well white plate and 50 μL of QuantiLuc Gold reagent (InvivoGen rep-qlcg5) was added per well; plate was mixed in the plate reader and luminescence was read using a Promega GloMax Reader.

Q: With `COc1cc(-c2cc(=O)c3c(O)cc(O)cc3o2)ccc1O` [CHR, Chrysoeriol] as the compound, how does the IC50 (CK2; read-out: CK2 IC50 values) read?
A: The IC50 was 80 to 800 nM.

Q: What does the source list for `O=C(O)c1ccc2c(c1)nc(Nc1cccc(Cl)c1)c1ccncc12` [CX-4945, silmitasertib]?
A: IL6 and IL8 expression (IL6 and IL8 expression): blocks; pNF-κB nuclear intensity relative to total NF-κB (NF-κB pS529): reduced; Secretion of IL-6 and MCP1 (IL-6 and MCP1): reduce secretion; IL6 / IL8 mRNA expression (IL6 and IL8 mRNA): successfully blocked; CK2 pY255 relative to total CK2α1 (CK2 pY255): reduction; IκBα levels (IκBα): dose-dependently boosted; phosphorylated IκB S32 (IκBα): remained unchanged

Q: With `O=c1cc(-c2ccccc2)oc2cc(O)cc(O)c12` [chrysin] as the compound, how does the IC50 (CK2; read-out: CK2 IC50 value) read?
A: The IC50 was 9000 nM.

Q: And the “IL1-β-induced IL-6, IL-8, TNF-α, MCP-1 cytokine upregulation” value [1]?
A: The value was “intermediate anti-inflammatory activity”.

Q: And the “SAR summary: activity in NF-κB reporter assay and for CK2 kinase inhibition” value (NF-κB)?
A: The value was “intermediately active”.

Q: Which IC50 (CK2; read-out: CK2 IC50 values) does the source give for `O=c1c(O)c(-c2ccc(O)c(O)c2)oc2cc(O)ccc12` [fisetin] here?
A: Its IC50 is 80 to 800 nM.
